{"sequences": {"note": "By UniProt entry, the sequences of proteins in these tests, tags left out. Where a name states a change or a piece, a line headed by the entry shows the natural chain unless it says otherwise.", "UniProt Q9UBU3": "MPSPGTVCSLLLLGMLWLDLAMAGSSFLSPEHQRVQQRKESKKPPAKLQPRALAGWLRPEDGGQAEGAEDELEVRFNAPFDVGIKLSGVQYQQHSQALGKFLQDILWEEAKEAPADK"}, "source": "patent US8440628B2", "about": "“Medical compositions containing ghrelin” (Daiichi Sankyo Company, Limited, priority 2002, dated 2013)", "test": "Stability of human ghrelin in pH-adjusted purified water at 25°C (Example 7)", "assay_type": "physicochemical", "settings": "25±2°C, 1 day after, listed as desacyl compound", "description": "Human ghrelin was dissolved in the purified water with about 0.03 μmol/mL (0.1 mg/mL). […] This solution was divided into quarter, and one portion was kept alone and the pH values of the remaining three portions were adjusted to pH 1.8 (with 17 mM of hydrochloric acid), pH 3.9 (with 0.20 mM of hydrochloric acid) and pH 7.8 (with 0.24 mM of sodium hydroxide) respectively, by adding along with hydrochloric acid or sodium hydroxide aqueous solution.", "note": "Some results were stated once for a whole list of compounds, not compound by compound."}
{"substance": "desacylated human ghrelin (GSSFLSPEHQRVQQRKESKKPPAKLQPR; Ghrelin-28 desacyl; UniProt Q9UBU3 24-51, looked up) [Desacyl compound, degradation product obtained from the hydrolytic cleavage of octanoyl group of human ghrelin]", "values": [{"measurement": "Peak area ratio to total peak area", "setting": "human ghrelin 0.1 mg/mL in purified water adjusted to pH 1.8 with hydrochloric acid", "value": "more than 1%"}, {"measurement": "Peak area ratio to total peak area", "setting": "human ghrelin 0.1 mg/mL in purified water adjusted to pH 7.8 with sodium hydroxide", "value": "more than 1%"}]}
